These are yes or no findings as the source states them, for the method shown. In cells and extracts the contact can be indirect. These calls come from enrichment with a bait or labelling near it, and not all partners need be listed.
Biological target: FLAG-DDX3X (UniProt O00571)
Test: affinity purification with mass spectrometry; FLAG-DDX3X from transfected HEK293T lysate (co-immunoprecipitation lysis buffer) enriched on anti-FLAG M2 beads at 4 °C for 4 hours, eluted with 3xFLAG peptide, silver-stained gel, mass spectrometry; in presence or absence of circRIG-I

Chains of the proteins cited; added tags and fusions are not shown.
UniProt O00571: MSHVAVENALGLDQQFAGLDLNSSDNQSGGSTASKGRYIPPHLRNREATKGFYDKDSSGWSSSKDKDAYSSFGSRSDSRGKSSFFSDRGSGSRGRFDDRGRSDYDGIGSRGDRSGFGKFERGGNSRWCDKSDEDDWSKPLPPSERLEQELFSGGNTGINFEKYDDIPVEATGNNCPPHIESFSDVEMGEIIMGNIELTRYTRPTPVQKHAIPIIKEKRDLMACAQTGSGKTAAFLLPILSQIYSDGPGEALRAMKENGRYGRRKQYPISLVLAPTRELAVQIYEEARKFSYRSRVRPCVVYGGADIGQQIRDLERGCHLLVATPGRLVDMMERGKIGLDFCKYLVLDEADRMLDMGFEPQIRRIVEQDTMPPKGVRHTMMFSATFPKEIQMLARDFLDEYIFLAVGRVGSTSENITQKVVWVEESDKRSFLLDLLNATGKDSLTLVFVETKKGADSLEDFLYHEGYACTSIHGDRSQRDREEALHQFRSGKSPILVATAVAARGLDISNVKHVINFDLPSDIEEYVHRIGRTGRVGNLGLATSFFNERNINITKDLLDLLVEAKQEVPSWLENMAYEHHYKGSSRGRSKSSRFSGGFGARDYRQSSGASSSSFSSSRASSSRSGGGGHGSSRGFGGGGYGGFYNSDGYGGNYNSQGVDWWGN
UniProt O00463: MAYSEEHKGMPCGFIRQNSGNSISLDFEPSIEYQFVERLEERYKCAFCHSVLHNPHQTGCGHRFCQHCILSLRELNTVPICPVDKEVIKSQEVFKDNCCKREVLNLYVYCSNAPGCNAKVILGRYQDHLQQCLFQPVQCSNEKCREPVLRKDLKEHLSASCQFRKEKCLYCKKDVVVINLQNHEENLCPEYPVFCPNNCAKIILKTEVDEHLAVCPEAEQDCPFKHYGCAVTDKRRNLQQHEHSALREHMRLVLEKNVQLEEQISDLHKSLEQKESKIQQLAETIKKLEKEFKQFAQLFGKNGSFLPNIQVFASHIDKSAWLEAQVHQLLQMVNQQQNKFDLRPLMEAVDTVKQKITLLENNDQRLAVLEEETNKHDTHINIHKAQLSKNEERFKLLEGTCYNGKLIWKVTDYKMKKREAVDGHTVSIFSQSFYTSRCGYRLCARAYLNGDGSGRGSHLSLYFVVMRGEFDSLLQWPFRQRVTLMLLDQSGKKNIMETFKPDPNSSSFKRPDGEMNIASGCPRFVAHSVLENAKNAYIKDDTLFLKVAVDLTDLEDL
UniProt Q9UHD2: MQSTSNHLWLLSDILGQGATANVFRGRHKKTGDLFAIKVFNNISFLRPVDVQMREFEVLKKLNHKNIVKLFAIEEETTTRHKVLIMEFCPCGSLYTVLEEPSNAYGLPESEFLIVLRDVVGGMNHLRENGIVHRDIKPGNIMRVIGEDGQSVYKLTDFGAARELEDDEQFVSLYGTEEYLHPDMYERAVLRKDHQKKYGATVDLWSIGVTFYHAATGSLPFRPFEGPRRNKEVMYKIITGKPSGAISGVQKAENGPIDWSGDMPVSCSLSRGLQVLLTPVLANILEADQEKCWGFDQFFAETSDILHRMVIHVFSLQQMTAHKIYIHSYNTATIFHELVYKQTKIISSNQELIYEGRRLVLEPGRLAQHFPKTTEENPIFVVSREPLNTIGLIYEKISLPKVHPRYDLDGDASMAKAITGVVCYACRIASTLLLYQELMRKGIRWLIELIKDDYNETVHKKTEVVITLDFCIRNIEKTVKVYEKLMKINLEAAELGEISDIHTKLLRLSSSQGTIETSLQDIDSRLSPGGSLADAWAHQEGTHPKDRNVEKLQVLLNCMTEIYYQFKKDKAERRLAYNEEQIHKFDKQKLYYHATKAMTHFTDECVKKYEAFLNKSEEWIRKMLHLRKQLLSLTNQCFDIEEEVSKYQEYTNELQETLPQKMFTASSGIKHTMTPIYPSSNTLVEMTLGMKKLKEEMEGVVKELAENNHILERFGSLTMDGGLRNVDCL
UniProt Q7Z434: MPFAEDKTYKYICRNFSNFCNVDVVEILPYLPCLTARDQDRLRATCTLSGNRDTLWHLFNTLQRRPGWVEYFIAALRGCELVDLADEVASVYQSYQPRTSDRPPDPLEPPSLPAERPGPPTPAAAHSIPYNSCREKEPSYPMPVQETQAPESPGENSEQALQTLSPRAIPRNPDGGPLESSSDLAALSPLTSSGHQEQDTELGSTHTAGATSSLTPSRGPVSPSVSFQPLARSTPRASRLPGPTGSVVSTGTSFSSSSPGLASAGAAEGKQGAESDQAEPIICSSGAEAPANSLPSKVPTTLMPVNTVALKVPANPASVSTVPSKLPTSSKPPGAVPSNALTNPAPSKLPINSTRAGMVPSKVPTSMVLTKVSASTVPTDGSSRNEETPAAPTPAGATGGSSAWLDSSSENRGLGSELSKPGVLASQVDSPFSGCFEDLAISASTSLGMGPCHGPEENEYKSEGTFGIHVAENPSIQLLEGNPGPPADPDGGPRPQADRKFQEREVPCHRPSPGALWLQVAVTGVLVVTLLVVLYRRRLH

binding | Molecule
binds | TRAF5 (from UniProt O00463 1-557)
binds | TBK1 (from UniProt Q9UHD2 1-729)
binds | MAVS (from UniProt Q7Z434 1-540)
binds | TRAF1 (protein, UniProt Q13077 1-416) MASSSGSSPRPAPDENEFPFGCPPTVCQDPKEPRALCCAGCLSENPRNGEDQICPKCRGEDLQSISPGSRLRTQEKAHPEVAEAGIGCPFAGVGCSFKGSPQSVQEHEVTSQTSHLNLLLGFMKQWKARLGCGLESGPMALEQNLSDLQLQAAVEVAGDLEVDCYRAPCSESQEELALQHFMKEKLLAELEGKLRVFENIVAVLNKEVEASHLALATSIHQSQLDRERILSLEQRVVELQQTLAQKDQALGKLEQSLRLMEEASFDGTFLWKITNVTRRCHESACGRTVSLFSPAFYTAKYGYKLCLRLYLNGDGTGKRTHLSLFIVIMRGEYDALLPWPFRNKVTFMLLDQNNREHAIDAFRPDLSSASFQRPQSETNVASGCPLFFPLSKLQSPKHAYVKDDTMFLKCIVETST
binds | TRAF4 (protein, UniProt Q9BUZ4 1-470) MPGFDYKFLEKPKRRLLCPLCGKPMREPVQVSTCGHRFCDTCLQEFLSEGVFKCPEDQLPLDYAKIYPDPELEVQVLGLPIRCIHSEEGCRWSGPLRHLQGHLNTCSFNVIPCPNRCPMKLSRRDLPAHLQHDCPKRRLKCEFCGCDFSGEAYESHEGMCPQESVYCENKCGARMMRRLLAQHATSECPKRTQPCTYCTKEFVFDTIQSHQYQCPRLPVACPNQCGVGTVAREDLPGHLKDSCNTALVLCPFKDSGCKHRCPKLAMARHVEESVKPHLAMMCALVSRQRQELQELRRELEELSVGSDGVLIWKIGSYGRRLQEAKAKPNLECFSPAFYTHKYGYKLQVSAFLNGNGSGEGTHLSLYIRVLPGAFDNLLEWPFARRVTFSLLDQSDPGLAKPQHVTETFHPDPNWKNFQKPGTWRGSLDESSLGFGYPKFISHQDIRKRNYVRDDAVFIRAAVELPRKILS
